In patent publication US20050226924A1, “Composition comprising itraconazole for oral administration” (priority 2004, published 2005):
At least one structure is not confirmed: it was looked up by name or label, or the drawing left a doubt.

Assay: Property (appearance) after 3 month storage at room temperature
Format: physicochemical

CCC(C)n1ncn(-c2ccc(N3CCN(c4ccc(OCC5COC(Cn6cncn6)(c6ccc(Cl)cc6Cl)O5)cc4)CC3)cc2)c1=O (racemic) [Itraconazole, (±)-cis-4-[4-[4-[4-[[2-(2,4-dichlorophenyl)-2-(1H-1,2,4-triazole-1-yl-methyl)-1,3-dioxolane-4-yl]methoxy]phenyl]-1-piperazinyl]phenyl]-2,4-dihydro-2-(1-methylpropyl)-3H-1,2,4-triazole-3-one]
Property: White
